Here are results for one substance from paper PMC11208438.

Amino acid sequences for entries named in this document (tags omitted). A change or cut given only in a name is not applied to a line headed by its entry.
UniProt Q8NEZ5: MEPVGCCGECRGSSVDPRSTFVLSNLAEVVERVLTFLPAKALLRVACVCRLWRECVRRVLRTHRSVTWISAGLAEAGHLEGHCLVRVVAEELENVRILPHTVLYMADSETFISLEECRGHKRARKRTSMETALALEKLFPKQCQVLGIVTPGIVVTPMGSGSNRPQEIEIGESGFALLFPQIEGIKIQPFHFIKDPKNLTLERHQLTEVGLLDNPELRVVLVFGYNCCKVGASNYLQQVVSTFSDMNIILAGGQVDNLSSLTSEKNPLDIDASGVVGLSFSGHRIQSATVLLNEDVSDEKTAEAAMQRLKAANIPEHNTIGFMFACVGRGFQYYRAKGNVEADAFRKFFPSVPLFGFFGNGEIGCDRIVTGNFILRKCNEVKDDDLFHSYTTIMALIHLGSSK

This experiment addresses SmBiT-FBXO22-C326A (human) (UniProt Q8NEZ5). Nature of the experiment: split reporter; HEK293T co-transfected with LgBiT-FKBP12 and SmBiT-FBXO22 (WT, C228A or C326A), 1 μM carfilzomib and Vivazine, treated with SP3CHO (1 μM for the mutants) in Opti-MEM with or without FCS; luminescence up to 4 h.

These are yes or no findings as the source states them, for the method shown. Binding seen in cells or lysates may run through a third protein.

For “LgBiT-FKBP12 (from UniProt P62942 1-108)”, the binding entry is reported as “no binding”.
